No constants are given. Whether binding was seen depends on the method and setting.
How the values were obtained:
CXCL13_HUMAN (human) = CXCL13_HUMAN (human) (UniProt O43927); assay: BLI, empty cell the 12th table, row 54, column 7
CX3CL1_HUMAN (human) = CX3CL1_HUMAN (human) (UniProt P78423); assay: BLI, empty cell the 12th table, row 41, column 7
CXCL12_HUMAN (human) = CXCL12_HUMAN (human) (UniProt P48061); assay: BLI, empty cell the 12th table, row 53, column 7
CCL15_HUMAN (human) = CCL15_HUMAN (human) (UniProt Q16663); assay: BLI, empty cell the 12th table, row 25, column 7
CCL28_HUMAN (human) = CCL28_HUMAN (human) (UniProt Q9NRJ3); assay: BLI, empty cell the 12th table, row 40, column 7
CXCL10_HUMAN (human) = CXCL10_HUMAN (human) (UniProt P02778); assay: BLI, empty cell the 12th table, row 51, column 7
CXCL6_HUMAN (human) = CXCL6_HUMAN (human) (UniProt P80162); assay: BLI, empty cell the 12th table, row 47, column 7
CXCL2_HUMAN (human) = CXCL2_HUMAN (human) (UniProt P19875); assay: BLI, empty cell the 12th table, row 43, column 7
CXCL14_HUMAN (human) = CXCL14_HUMAN (human) (UniProt O95715); assay: BLI, empty cell the 12th table, row 55, column 7
CXCL5_HUMAN (human) = CXCL5_HUMAN (human) (UniProt P42830); assay: BLI, empty cell the 12th table, row 46, column 7
CCL21_HUMAN (human) = CCL21_HUMAN (human) (UniProt O00585); assay: BLI, empty cell the 12th table, row 32, column 7
CXCL1_HUMAN (human) = CXCL1_HUMAN (human) (UniProt P09341); assay: BLI, empty cell the 12th table, row 42, column 7
CXCL4_HUMAN (human) = CXCL4_HUMAN (human) (UniProt P02776); assay: BLI, empty cell the 12th table, row 45, column 7
CCL23_HUMAN (human) = CCL23_HUMAN (human) (UniProt P55773); assay: BLI, empty cell the 12th table, row 34, column 7
CXCL3_HUMAN (human) = CXCL3_HUMAN (human) (UniProt P19876); assay: BLI, empty cell the 12th table, row 44, column 7
CXCL9_HUMAN (human) = CXCL9_HUMAN (human) (UniProt Q07325); assay: BLI, empty cell the 12th table, row 50, column 7
CCL24_HUMAN (human) = CCL24_HUMAN (human) (UniProt O00175); assay: BLI, empty cell the 12th table, row 35, column 7
CXCL11_HUMAN (human) = CXCL11_HUMAN (human) (UniProt O14625); assay: BLI, empty cell the 12th table, row 52, column 7
CCL27_HUMAN (human) = CCL27_HUMAN (human) (UniProt Q9Y4X3); assay: BLI, empty cell the 12th table, row 38, column 7
CXCL7_HUMAN (human) = CXCL7_HUMAN (human) (UniProt P02775); assay: BLI, empty cell the 12th table, row 48, column 7
CXCL8_HUMAN (human) = CXCL8_HUMAN (human) (UniProt P10145); assay: BLI, empty cell the 12th table, row 49, column 7
XCL1_HUMAN (human) = target: T1, XCL1_HUMAN (human) (UniProt P47992); assay: BLI, empty cell the 12th table, row 59, column 7
T1 sequence: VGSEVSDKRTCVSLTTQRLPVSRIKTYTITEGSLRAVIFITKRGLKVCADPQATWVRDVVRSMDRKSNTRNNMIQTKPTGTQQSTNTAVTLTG

The chains behind the UniProt entries cited, without tags or fusion partners. Residues count along the entry.
UniProt O43927, residues 23-109: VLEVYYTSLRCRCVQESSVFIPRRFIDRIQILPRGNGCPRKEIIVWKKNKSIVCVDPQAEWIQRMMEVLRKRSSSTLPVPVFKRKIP
UniProt P78423, residues 25-100: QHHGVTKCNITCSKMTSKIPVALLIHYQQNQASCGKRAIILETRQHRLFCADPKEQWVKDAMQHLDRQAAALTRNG
UniProt P48061, residues 22-89: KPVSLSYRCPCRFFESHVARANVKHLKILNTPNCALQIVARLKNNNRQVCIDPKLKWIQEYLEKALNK
UniProt Q16663, residues 22-113: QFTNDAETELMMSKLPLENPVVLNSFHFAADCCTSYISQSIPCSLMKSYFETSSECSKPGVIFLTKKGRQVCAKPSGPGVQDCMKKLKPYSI
UniProt Q9NRJ3, residues 23-127: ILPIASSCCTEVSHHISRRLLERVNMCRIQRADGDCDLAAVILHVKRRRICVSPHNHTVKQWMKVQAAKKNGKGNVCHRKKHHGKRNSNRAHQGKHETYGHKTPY
UniProt P02778, residues 22-98: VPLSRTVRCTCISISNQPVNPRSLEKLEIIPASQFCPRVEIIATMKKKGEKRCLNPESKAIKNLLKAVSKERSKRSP
UniProt P80162, residues 38-114: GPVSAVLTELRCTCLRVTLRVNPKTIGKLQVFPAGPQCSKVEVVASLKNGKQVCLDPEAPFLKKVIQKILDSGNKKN
UniProt P19875, residues 35-107: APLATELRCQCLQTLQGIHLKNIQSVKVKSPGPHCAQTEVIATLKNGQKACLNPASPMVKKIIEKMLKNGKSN
UniProt O95715, residues 35-111: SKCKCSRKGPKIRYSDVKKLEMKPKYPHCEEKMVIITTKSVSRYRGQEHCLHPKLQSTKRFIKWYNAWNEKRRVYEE
UniProt P42830, residues 41-114: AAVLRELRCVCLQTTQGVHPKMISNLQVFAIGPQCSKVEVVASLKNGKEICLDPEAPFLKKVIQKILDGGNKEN
UniProt O00585, residues 24-134: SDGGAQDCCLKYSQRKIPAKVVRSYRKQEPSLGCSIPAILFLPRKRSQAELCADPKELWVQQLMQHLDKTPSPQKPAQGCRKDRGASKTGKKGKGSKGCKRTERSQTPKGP
UniProt P09341, residues 35-107: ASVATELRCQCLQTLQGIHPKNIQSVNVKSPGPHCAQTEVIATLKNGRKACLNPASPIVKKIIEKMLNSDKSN
UniProt P02776, residues 32-101: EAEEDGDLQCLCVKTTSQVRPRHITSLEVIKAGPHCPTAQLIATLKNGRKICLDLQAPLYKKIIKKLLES
UniProt P55773, residues 22-120: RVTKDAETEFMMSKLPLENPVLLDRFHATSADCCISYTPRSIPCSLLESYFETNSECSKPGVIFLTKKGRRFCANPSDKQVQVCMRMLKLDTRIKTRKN
UniProt P19876, residues 35-107: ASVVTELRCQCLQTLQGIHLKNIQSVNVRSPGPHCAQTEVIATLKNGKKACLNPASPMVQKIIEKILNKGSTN
UniProt Q07325, residues 23-125: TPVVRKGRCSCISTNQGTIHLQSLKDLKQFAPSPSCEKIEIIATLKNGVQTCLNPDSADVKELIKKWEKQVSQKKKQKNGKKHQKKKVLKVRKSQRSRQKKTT
UniProt O00175, residues 27-104: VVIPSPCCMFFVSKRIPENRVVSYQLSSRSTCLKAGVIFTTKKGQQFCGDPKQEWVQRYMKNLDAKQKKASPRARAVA
UniProt O14625, residues 22-94: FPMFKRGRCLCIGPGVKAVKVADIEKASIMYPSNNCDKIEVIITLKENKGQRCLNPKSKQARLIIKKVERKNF
UniProt Q9Y4X3, residues 25-112: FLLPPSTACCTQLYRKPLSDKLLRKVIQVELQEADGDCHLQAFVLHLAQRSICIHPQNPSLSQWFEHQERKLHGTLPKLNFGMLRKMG
UniProt P02775, residues 59-128: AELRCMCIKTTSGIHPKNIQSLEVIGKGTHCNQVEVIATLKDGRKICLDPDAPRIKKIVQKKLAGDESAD
UniProt P10145, residues 28-99: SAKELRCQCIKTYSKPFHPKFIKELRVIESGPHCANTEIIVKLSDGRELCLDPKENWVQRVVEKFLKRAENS
UniProt P78556, residues 27-96: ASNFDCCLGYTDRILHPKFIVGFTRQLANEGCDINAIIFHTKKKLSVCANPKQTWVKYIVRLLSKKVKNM

CCL20_HUMAN (human) = CCL20_HUMAN (human) (UniProt P78556); assay: BLI, empty cell the 12th table, row 30, column 7

Measured: binding

B1: P467_RHIPU (protein)
chain: AEKSLDSDSSGEDYELWTQGCPFLVAENRTGFGTTVSCQHNCNGAIEKVPEGEPCYTIGEDGLGRMKLNLPYNCSLGECSGGVCVPNGRSDVCFKRTWEENNKAMA
no binding (tested: 300 nM): CXCL13_HUMAN (human) | CX3CL1_HUMAN (human) | CXCL12_HUMAN (human) | CCL15_HUMAN (human) | CCL28_HUMAN (human) | CXCL10_HUMAN (human) | CXCL6_HUMAN (human) | CXCL2_HUMAN (human) | CXCL14_HUMAN (human) | CXCL5_HUMAN (human) | CCL21_HUMAN (human) | CXCL1_HUMAN (human) | CXCL4_HUMAN (human) | CCL23_HUMAN (human) | CXCL3_HUMAN (human) | CXCL9_HUMAN (human) | CCL24_HUMAN (human) | CXCL11_HUMAN (human) | CCL27_HUMAN (human) | CXCL7_HUMAN (human) | CXCL8_HUMAN (human) | XCL1_HUMAN (human) | CCL20_HUMAN (human)

Reference: patent US20240034757A1
